Measured values: PubChem BioAssay AID504444 (National Center for Advancing Translational Sciences (NCATS), 2011)
In all, about 360,000 compounds went through this assay and about 7,500 (2.1%) were called active. Inconclusive means that the source gave no clear call. Such entries were picked first, then a sample of the others. The call rests on the fitted dose curve; in most records, active means well fitted inhibition curve with a large enough effect; inconclusive means small, poorly fitted or top-dose-only effect, or effect the other way; inactive means flat fitted curve, though single readings scatter. A potency beside an inconclusive call is a rough fit, not a confirmed value.

Assay: Nrf2 qHTS screen for inhibitors; further: nearly all actives have a fitted effect of over 60% in size
Settings: A549 ARE-Fluc reporter, luciferase luminescence, 18-24 h; series mostly up to 46 µM
How it was run: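 Quantitative HTS in A549 cells stably bearing an antioxidant response element-firefly luciferase construct. Inhibition of Nrf2-driven transcription was scored by luminescence after 18-24 h of compound exposure at 37 °C.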
Potency means the concentration at half of the fitted maximal effect.

Q: For C=CCN(C(=O)CCC(=O)Nc1cc(C)on1)C(C(=O)NC1CCCC1)c1ccc(CC)cc1 (stereo not drawn), which Potency is on record?
A: The Potency was inconclusive: 29.1 µM [falling, single point].

Q: Which Potency does the source give for COc1cccc(-c2nnc(-c3ccc(C(F)(F)F)cc3)o2)c1OC here?
A: Its Potency is inconclusive: 20.6 µM [activator, single point].

Q: Which Potency does the source give for Cn1c(=O)c2c(nc(NCCc3ccccc3)n2Cc2ccccc2)n(C)c1=O here?
A: The Potency was active: 14.6 µM.

Q: For CCC(Oc1ccccc1)C(=O)N(CC)CC(=O)NCc1ccc(F)cc1 (stereo not drawn), which Potency is on record?
A: The Potency was “inactive”.

Q: For CC1(C(=O)OCC(=O)Nc2ccccc2)CC1(Cl)Cl (stereo not drawn), which Potency is on record?
A: The Potency was inconclusive: 16.4 µM [activator, partial curve].

Q: For CC1(C)CC(N2CCCC2)=CC(=[N+]2CCCCCC2)C1, which Potency is on record?
A: The Potency was “inactive”.

Q: For COc1ccc(Cn2c(=O)n(-c3ccc(F)c(Cl)c3)c(=O)c3c2c2cc(OC)ccc2n3C)cc1, which Potency is on record?
A: The Potency was inconclusive: 11.6 µM [activator, partial curve, poor fit].

Q: Which Potency does the source give for C=CCn1c(SCc2c(C)noc2C)nc2sc3c(c2c1=O)CCCC3 here?
A: The Potency was active: 9.2 µM.

Q: For CCCC(=O)Oc1ccc(-c2nccc(C(OC)OC)n2)cc1, which Potency is on record?
A: Its Potency is inconclusive: 1.3 µM [activator, full curve, poor fit].

Q: With COc1cc2c(OC)cccc2cc1C(=O)O as the compound, how does the Potency read?
A: The Potency was inconclusive: 0.092 µM [falling, full curve, poor fit].

Q: With Cc1cc(/C=N/NC(=O)c2ccc(O)cc2)c(C)n1CC(C)C as the compound, how does the Potency read?
A: The Potency was inconclusive: 13 µM [falling, partial curve].

Q: With Cc1cc(C)nc(Sc2nc(Nc3ccccc3)nc(Sc3nc(C)cc(C)n3)n2)n1 as the compound, how does the Potency read?
A: Its Potency is “inactive”.

Q: For Cc1cccc(Nc2nnc(SCC(=O)NC(=O)Nc3ccc4c(c3)OCCO4)s2)c1, which Potency is on record?
A: The Potency was inconclusive: 29.1 µM [falling, single point].

Q: For O=C(O)c1ccccc1Nc1ccccc1C(=O)O, which Potency is on record?
A: The Potency was “inactive”.

Q: With Cc1nnc(SCC2=C(C(=O)O)N3C(=O)C(NC(=O)Cn4ncc(Cl)c4C)C3SC2)s1 (stereo not drawn) as the compound, how does the Potency read?
A: The Potency was “inactive”.

Q: With COc1ccc(-c2nn(CCC#N)cc2C=C(C#N)C#N)cc1 as the compound, how does the Potency read?
A: The Potency was “inactive”.

Q: Which Potency does the source give for C=CCN(CC=C)CCOc1cc(C)ccc1[N+](=O)[O-] here?
A: Its Potency is inconclusive: 32.6 µM [activator, single point].

Q: With O=C(NNC1=Nc2ccccc2SC1)c1ccc(F)cc1 as the compound, how does the Potency read?
A: The Potency was active: 23.1 µM.

Q: For CCN(CC)C(=O)c1nn(Cc2ccccc2)c(=O)c2ccccc12, which Potency is on record?
A: Its Potency is inconclusive: 29.1 µM [falling, single point].

Q: For O=C(NCc1ccccc1F)c1ccc(S(=O)(=O)Nc2cccc(C(F)(F)F)c2)cc1, which Potency is on record?
A: The Potency was inconclusive: 0.259 µM [falling, partial curve, poor fit].

Q: With O=[N+]([O-])c1ccc(S(=O)(=O)CC(CN2CCCCC2)N2CCCCC2)cc1 (stereo not drawn) as the compound, how does the Potency read?
A: Its Potency is inconclusive: 5.17 µM [falling, single point].

Q: Which Potency does the source give for O=C(O)c1ccc(-c2nc(-c3ccc(Cl)cc3)cs2)cc1 here?
A: The Potency was inconclusive: 0.259 µM [activator, full curve].

Q: With O=C(N/N=C/c1ccc[nH]1)c1ccc(Cl)cc1 as the compound, how does the Potency read?
A: Its Potency is inconclusive: 29.1 µM [falling, single point].

Q: With CN(C(=O)CSc1nc2ccccc2s1)c1c(N)n(Cc2ccccc2)c(=O)[nH]c1=O as the compound, how does the Potency read?
A: Its Potency is inconclusive: 0.0366 µM [falling, full curve, poor fit].

Q: With COC(c1ccccc1)c1nnc(CCC(=O)N(C)CCOc2ccccc2)o1 (stereo not drawn) as the compound, how does the Potency read?
A: The Potency was inconclusive: 20.6 µM [activator, partial curve].

Q: With CN(CCCCN1CCOCC1)Cc1nc(-c2ccc3c(c2)OCO3)no1 as the compound, how does the Potency read?
A: Its Potency is inconclusive: 23.1 µM [activator, single point].

Q: With COc1ccc(C2=C(Nc3ccc(Br)c(C)c3)c3ccccc3C2=O)cc1 as the compound, how does the Potency read?
A: The Potency was inconclusive: 29.1 µM [falling, single point].

Q: For COc1ccc(NC(=O)c2nn(C)c3c2CS(=O)(=O)c2ccccc2-3)cc1Cl, which Potency is on record?
A: The Potency was inconclusive: 7.31 µM [activator, partial curve].

Q: For CCOC(=O)C1=C(O)C(=O)N(Cc2ccc(C(C)(C)C)cc2)CC1, which Potency is on record?
A: The Potency was inconclusive: 16.4 µM [falling, partial curve, poor fit].

Q: With NS(=O)(=O)c1cccc(NC(=S)NC(=O)C23CC4CC(CC(C4)C2)C3)c1 as the compound, how does the Potency read?
A: The Potency was “inactive”.

Q: For COc1ccc2[nH]c(C)c(CCNC(=S)Nc3ccc(C)cc3)c2c1, which Potency is on record?
A: The Potency was inconclusive: 16.4 µM [falling, single point].

Q: For O=c1c2[nH]c3ccsc3c2cnn1Cc1ccccc1F, which Potency is on record?
A: The Potency was “inactive”.

Q: With COc1ccc(Br)cc1C(=O)NCc1cccnc1 as the compound, how does the Potency read?
A: Its Potency is inconclusive: 0.184 µM [falling, full curve, poor fit].

Q: Which Potency does the source give for COc1ccc(N(CC(=O)NC(C)c2ccccc2)S(=O)(=O)c2c(C)nn(C)c2C)cc1 (stereo not drawn) here?
A: The Potency was inconclusive: 10.3 µM [activator, partial curve, poor fit].

Q: Which Potency does the source give for CC(=O)Nc1sc2c(c1C#N)CCC(C)C2 (stereo not drawn) here?
A: Its Potency is “inactive”.

Q: For CCOc1cc2nc(-c3ccc(OC)c(OC)c3)nc(N3CCOCC3)c2cc1OC, which Potency is on record?
A: Its Potency is “inactive”.

Q: Which Potency does the source give for CC1(C)c2ccccc2N2CC(=O)NC21/C=C/c1ccco1 (stereo not drawn) here?
A: Its Potency is “inactive”.

Q: With COc1cccc(C(NC(C)=O)c2ccc3cccnc3c2O)c1 (stereo not drawn) as the compound, how does the Potency read?
A: Its Potency is inconclusive: 10.3 µM [falling, partial curve, poor fit].

Q: For C=CCN1C=CC(=C/C=C(/C#N)C(=O)OCC)C=C1, which Potency is on record?
A: The Potency was inconclusive: 1.3 µM [activator, full curve].

Q: For Cc1ccc(S(=O)(=O)N2CCCCC2C(=O)Nc2nncs2)cc1 (stereo not drawn), which Potency is on record?
A: Its Potency is inconclusive: 32.6 µM [activator, single point].

Q: For Cc1ccc(NC(=O)CN2C(=O)CCc3ccccc32)cc1C, which Potency is on record?
A: The Potency was inconclusive: 13 µM [falling, partial curve, poor fit].

Q: With CC(Oc1ccc(Cl)cc1Cl)C(=O)Nc1cccnc1 (stereo not drawn) as the compound, how does the Potency read?
A: The Potency was inconclusive: 14.6 µM [falling, partial curve, poor fit].

Q: For COc1nnc(-c2ccc(C)c(S(N)(=O)=O)c2)c2ccccc12, which Potency is on record?
A: The Potency was “inactive”.

Q: For CCC(=O)N1CCc2cc(S(=O)(=O)NCCC(=O)N3CCN(c4ccccc4)CC3)ccc21, which Potency is on record?
A: Its Potency is “inactive”.

Q: For Cc1ccc(NC(=O)c2cccc(S(=O)(=O)N(C)c3ccccc3)c2)cc1S(=O)(=O)N1CCOCC1, which Potency is on record?
A: Its Potency is inconclusive: 25.9 µM [falling, partial curve].

Q: Which Potency does the source give for CCCCc1ccc(NC(=O)c2cc(-c3ccc(C)c(F)c3)on2)cc1 here?
A: Its Potency is inconclusive: 29.1 µM [falling, single point].

Q: With CC12CCC=CC1C(c1ccc(/C=C/c3ccccc3)cc1F)N(Cc1ccccc1)C2=O (stereo not drawn) as the compound, how does the Potency read?
A: The Potency was inconclusive: 32.6 µM [falling, single point].

Q: With Cc1ccc(NC(=O)c2ccc(OC(=O)c3cc4ccccc4o3)cc2)cc1 as the compound, how does the Potency read?
A: The Potency was inconclusive: 9.2 µM [activator, partial curve].

Q: For O=C(NCc1ccccc1)c1nc(S(=O)(=O)Cc2ccc(F)cc2)ncc1Cl, which Potency is on record?
A: Its Potency is active: 25.9 µM.

Q: With CCCn1c(N2CCN(C(=O)NCc3ccccc3)CC2)nc2ccccc21 as the compound, how does the Potency read?
A: Its Potency is inconclusive: 5.8 µM [falling, partial curve, poor fit].

Q: With O=C(NCc1ccc2c(c1)OCO2)NC1CCCCC1 as the compound, how does the Potency read?
A: The Potency was inconclusive: 9.2 µM [activator, partial curve].

Q: With Cc1ccc(C(=O)NC(=S)NCc2ccco2)cc1 as the compound, how does the Potency read?
A: The Potency was inconclusive: 20.6 µM [activator, partial curve].

Q: For COc1cc(C(=O)Nc2ccc3c(c2)CCCN3C(=O)c2ccco2)c([N+](=O)[O-])cc1OC, which Potency is on record?
A: The Potency was inconclusive: 23.1 µM [falling, single point].

Q: Which Potency does the source give for Cc1ccc(S(=O)(=O)/N=C2\CN(C)C(=O)N2C)cc1 here?
A: Its Potency is inconclusive: 5.8 µM [activator, single point].

Q: Which Potency does the source give for Oc1cc(NCCN2CCOCC2)cc2cccnc12 here?
A: Its Potency is inconclusive: 29.1 µM [activator, single point].

Q: Which Potency does the source give for CCOCCn1cnc2sc(C(=O)NCCCN3CCOCC3)c(C)c2c1=O here?
A: Its Potency is inconclusive: 29.1 µM [activator, single point].

Q: With Cc1nn(C(C)C(=O)NC2CCC(C)CC2)c(=O)c2c1sc1ccccc12 (stereo not drawn) as the compound, how does the Potency read?
A: Its Potency is inconclusive: 2.59 µM [falling, full curve].

Q: For CC(C)CCOc1ccc(C2N=C(N)Nc3nc4ccccc4n32)cc1 (stereo not drawn), which Potency is on record?
A: The Potency was “inactive”.

Q: For CCc1ccc(OCc2nc(-c3ccc(-n4cccc4)cc3)no2)cc1, which Potency is on record?
A: Its Potency is inconclusive: 14.6 µM [falling, partial curve, poor fit].

Q: Which Potency does the source give for COc1cccc(C(=O)Nc2nc(-c3ccncc3)cs2)c1 here?
A: The Potency was inconclusive: 5.8 µM [falling, partial curve, poor fit].

Q: With COc1cc2c(cc1NC(=O)COC(=O)Cn1cnc3ccccc31)oc1ccccc12 as the compound, how does the Potency read?
A: Its Potency is inconclusive: 29.1 µM [activator, single point].

Q: With COc1cc(/C=C/C(=O)c2ccc3c(c2)OCCO3)cc(OC)c1OC as the compound, how does the Potency read?
A: Its Potency is inconclusive: 29.1 µM [activator, single point].

Q: For CN(C)CCOc1nc(-c2ccccc2)nc2c1oc1ccccc12, which Potency is on record?
A: Its Potency is inconclusive: 29.1 µM [falling, single point].

Q: For COCc1cc(C)nc2sc(C(=O)N3CCCC3)c(N)c12, which Potency is on record?
A: The Potency was inconclusive: 0.0052 µM [falling, full curve, poor fit].

Q: Which Potency does the source give for CCCNc1nc2ccccc2n2c(C)nnc12 here?
A: The Potency was inconclusive: 18.4 µM [falling, single point].

Q: Which Potency does the source give for CSC(=NC#N)N1CCN(c2ccc(Cl)cc2)CC1 here?
A: Its Potency is inconclusive: 2.59 µM [falling, full curve].

Q: For Cc1cccc(N2CCN(C(=O)CN3CCOc4ccccc43)CC2C)c1 (stereo not drawn), which Potency is on record?
A: The Potency was “inactive”.

Q: With COc1ccc(S(=O)(=O)c2cnc3cc(OC)c(OC)cc3c2N2CCCC(C)C2)cc1 (stereo not drawn) as the compound, how does the Potency read?
A: The Potency was inconclusive: 29.1 µM [falling, single point].
